In publication PMC5732219:
Numbering of substitutions follows the chain as printed. Results are given in words; binding and its absence hold for the method and conditions named. Binding seen in cells or lysates may run through a third protein. Sequences can lack the tags named with a protein.

Key:
Assay in all cases: co-IP; anti-FLAG immunoprecipitation from 0.5 mg lysate of HEK293 cells transfected 24 h with FLAG-RABEP2 constructs; immunocomplexes washed in lysis buffer with no additional NaCl; blot with anti-rab5
[1] = target: T1, FLAG-tagged human RABEP2 Ser200Ala/Ser204Ala (human) (UniProt Q9H5N1)
T1 sequence: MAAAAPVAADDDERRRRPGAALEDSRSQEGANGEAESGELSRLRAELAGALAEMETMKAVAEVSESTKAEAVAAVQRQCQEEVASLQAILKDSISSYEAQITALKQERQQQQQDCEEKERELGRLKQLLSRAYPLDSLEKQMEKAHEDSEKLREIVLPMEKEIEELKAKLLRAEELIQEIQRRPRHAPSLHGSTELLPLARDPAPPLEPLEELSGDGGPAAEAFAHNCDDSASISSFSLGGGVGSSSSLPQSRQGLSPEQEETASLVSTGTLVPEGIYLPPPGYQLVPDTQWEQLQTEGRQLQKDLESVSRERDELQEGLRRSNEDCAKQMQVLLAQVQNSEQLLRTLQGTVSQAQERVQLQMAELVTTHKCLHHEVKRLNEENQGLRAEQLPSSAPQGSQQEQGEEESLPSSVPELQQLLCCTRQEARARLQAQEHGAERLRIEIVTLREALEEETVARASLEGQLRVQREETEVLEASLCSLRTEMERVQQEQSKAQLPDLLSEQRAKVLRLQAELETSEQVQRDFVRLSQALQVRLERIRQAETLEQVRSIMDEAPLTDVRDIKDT

[2] = target: T2, FLAG-tagged human RABEP2 Ser204Glu (human) (UniProt Q9H5N1)
T2 sequence: T1 sequence with A200S, A204E

[3] = target: T3, FLAG-tagged wild-type human RABEP2 (Rab-GTPase binding effector protein 2) (human) (UniProt Q9H5N1)
T3 sequence: T1 sequence with A200S, A204S

binding [1]: no binding
binding [2]: no binding
binding [3]: no binding
Substance: Rab5 (endogenous, HEK293 cells) (human (endogenous in HEK293))
